These are yes or no findings as the source states them, for the method shown. In cells and extracts the contact can be indirect. Here binding means that the protein was enriched with, or labelled near, the bait; the list need not be complete. Tags and fused reporters may be left off the sequences shown. Each block holds one binder with its values, some of them ahead of it.
Tests used:
Experiment in all cases: proximity labelling
PMPCA-BirA*-FLAG (human) = molecular target: T1, PMPCA-BirA*-FLAG (human) (UniProt Q10713)
T1 sequence: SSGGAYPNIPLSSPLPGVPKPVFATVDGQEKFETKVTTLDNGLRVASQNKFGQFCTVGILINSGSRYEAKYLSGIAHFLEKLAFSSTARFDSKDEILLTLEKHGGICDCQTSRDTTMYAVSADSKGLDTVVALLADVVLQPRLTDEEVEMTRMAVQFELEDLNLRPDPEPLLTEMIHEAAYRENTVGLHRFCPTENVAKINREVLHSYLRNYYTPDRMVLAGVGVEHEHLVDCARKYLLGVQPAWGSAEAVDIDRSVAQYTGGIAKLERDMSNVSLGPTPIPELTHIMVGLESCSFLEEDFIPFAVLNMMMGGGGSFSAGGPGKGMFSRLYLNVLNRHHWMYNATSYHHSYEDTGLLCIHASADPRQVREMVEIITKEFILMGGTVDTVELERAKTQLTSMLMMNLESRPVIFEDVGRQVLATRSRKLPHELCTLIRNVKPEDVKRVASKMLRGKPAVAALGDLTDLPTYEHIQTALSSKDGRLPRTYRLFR

[1] = molecular target: T2, ACAD9-BirA*-FLAG (human), Q9H845; details: remark: other sources report otherwise
T2 chain: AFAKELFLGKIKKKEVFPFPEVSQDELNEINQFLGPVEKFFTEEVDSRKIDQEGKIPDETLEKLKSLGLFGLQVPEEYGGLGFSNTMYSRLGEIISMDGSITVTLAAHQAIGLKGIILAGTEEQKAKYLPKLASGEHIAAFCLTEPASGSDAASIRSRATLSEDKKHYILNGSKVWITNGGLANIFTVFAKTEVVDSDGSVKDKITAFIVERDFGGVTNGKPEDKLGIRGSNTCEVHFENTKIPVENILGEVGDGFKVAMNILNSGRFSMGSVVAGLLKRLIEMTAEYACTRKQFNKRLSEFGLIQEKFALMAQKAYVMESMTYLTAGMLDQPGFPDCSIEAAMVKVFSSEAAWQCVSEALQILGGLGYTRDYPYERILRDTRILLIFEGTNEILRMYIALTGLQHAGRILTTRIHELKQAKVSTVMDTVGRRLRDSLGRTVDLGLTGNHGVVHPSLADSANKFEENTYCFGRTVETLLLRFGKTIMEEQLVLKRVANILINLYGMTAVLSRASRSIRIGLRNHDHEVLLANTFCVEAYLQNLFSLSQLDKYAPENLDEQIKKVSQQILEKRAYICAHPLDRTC

[2] = molecular target: T3, MTRF1L-BirA*-FLAG (human) (UniProt Q9UGC7)
T3 sequence: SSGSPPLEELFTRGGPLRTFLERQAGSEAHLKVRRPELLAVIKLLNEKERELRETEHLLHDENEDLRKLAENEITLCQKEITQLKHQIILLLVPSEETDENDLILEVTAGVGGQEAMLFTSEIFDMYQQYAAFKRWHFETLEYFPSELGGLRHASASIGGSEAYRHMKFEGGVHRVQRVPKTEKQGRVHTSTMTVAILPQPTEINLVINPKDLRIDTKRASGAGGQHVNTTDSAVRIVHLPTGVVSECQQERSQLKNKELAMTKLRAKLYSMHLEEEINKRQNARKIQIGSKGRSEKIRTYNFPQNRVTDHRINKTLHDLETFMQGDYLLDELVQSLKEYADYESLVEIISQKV

ACAD9-BirA*-FLAG (human) = molecular target: T4, ACAD9-BirA*-FLAG (human) (UniProt Q9H845)
T4 sequence: T2 chain

MTIF2-BirA*-FLAG (human) = molecular target: T5, MTIF2-BirA*-FLAG (human) (UniProt P46199)
T5 sequence: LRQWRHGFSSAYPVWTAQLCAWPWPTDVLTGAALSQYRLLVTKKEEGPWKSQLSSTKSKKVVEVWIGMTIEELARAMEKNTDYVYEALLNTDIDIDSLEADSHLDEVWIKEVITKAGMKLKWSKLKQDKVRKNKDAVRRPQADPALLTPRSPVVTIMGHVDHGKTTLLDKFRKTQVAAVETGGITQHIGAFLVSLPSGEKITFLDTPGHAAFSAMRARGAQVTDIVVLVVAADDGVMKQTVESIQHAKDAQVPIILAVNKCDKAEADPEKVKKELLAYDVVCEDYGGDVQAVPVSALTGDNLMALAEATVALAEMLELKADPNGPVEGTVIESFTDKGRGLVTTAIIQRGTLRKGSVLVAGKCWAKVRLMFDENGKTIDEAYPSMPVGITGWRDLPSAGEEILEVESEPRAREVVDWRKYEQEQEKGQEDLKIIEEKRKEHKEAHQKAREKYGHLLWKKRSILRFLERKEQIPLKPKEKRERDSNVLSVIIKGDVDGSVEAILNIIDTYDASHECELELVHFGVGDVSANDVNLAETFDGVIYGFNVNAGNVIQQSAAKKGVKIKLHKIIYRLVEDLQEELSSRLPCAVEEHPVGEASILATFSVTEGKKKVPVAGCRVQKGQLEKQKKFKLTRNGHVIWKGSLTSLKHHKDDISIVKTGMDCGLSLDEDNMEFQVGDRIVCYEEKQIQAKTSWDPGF

binding (PMPCA-BirA*-FLAG (human)): binds
B1: PMPCB (protein, UniProt O75439 44-489)
chain: STQAATQVVLNVPETRVTCLESGLRVASEDSGLSTCTVGLWIDAGSRYENEKNNGTAHFLEHMAFKGTKKRSQLDLELEIENMGAHLNAYTSREQTVYYAKAFSKDLPRAVEILADIIQNSTLGEAEIERERGVILREMQEVETNLQEVVFDYLHATAYQNTALGRTILGPTENIKSISRKDLVDYITTHYKGPRIVLAAAGGVSHDELLDLAKFHFGDSLCTHKGEIPALPPCKFTGSEIRVRDDKMPLAHLAIAVEAVGWAHPDTICLMVANTLIGNWDRSFGGGMNLSSKLAQLTCHGNLCHSFQSFNTSYTDTGLWGLYMVCESSTVADMLHVVQKEWMRLCTSVTESEVARARNLLKTNMLLQLDGSTPICEDIGRQMLCYNRRIPIPELEARIDAVNAETIREVCTKYIYNRSPAIAAVGPIKQLPDFKQIRSNMCWLRD

binding [1]: binds
B2: NDUFAF1, Q9Y375 25-327 (protein)
chain: YPFLGIRFAEYSSSLQKPVASPGKASSQRKTEGDLQGDHQKEVALDITSSEEKPDVSFDKAIRDEAIYHFRLLKDEIVDHWRGPEGHPLHEVLLEQAKVVWQFRGKEDLDKWTVTSDKTIGGRSEVFLKMGKNNQSALLYGTLSSEAPQDGESTRSGYCAMISRIPRGAFERKMSYDWSQFNTLYLRVRGDGRPWMVNIKEDTDFFQRTNQMYSYFMFTRGGPYWQEVKIPFSKFFFSNRGRIRDVQHELPLDKISSIGFTLADKVDGPFFLEIDFIGVFTDPAHTEEFAYENSPELNPRLFK

binding [2]: binds
binding (ACAD9-BirA*-FLAG (human)): binds
B3: ECSIT (protein, UniProt Q9BQ95 49-431)
chain: SSEQSLVPSPPEPRQRPTKALVPFEDLFGQAPGGERDKASFLQTVQKFAEHSVRKRGHIDFIYLALRKMREYGVERDLAVYNQLLNIFPKEVFRPRNIIQRIFVHYPRQQECGIAVLEQMENHGVMPNKETEFLLIQIFGRKSYPMLKLVRLKLWFPRFMNVNPFPVPRDLPQDPVELAMFGLRHMEPDLSARVTIYQVPLPKDSTGAADPPQPHIVGIQSPDQQAALARHNPARPVFVEGPFSLWLRNKCVYYHILRADLLPPEEREVEETPEEWNLYYPMQLDLEYVRSGWDNYEFDINEVEEGPVFAMCMAGAHDQATMAKWIQGLQETNPTLAQIPVVFRLAGSTRELQTSSAGLEEPPLPEDHQEEDDNLQRQQQGQS

binding (MTIF2-BirA*-FLAG (human)): binds
B4: MTG2 (protein, UniProt Q9H4K7 1-406)
chain: MAPARCFSARLRTVFQGVGHWALSTWAGLKPSRLLPQRASPRLLSVGRADLAKHQELPGKKLLSEKKLKRYFVDYRRVLVCGGNGGAGASCFHSEPRKEFGGPDGGDGGNGGHVILRVDQQVKSLSSVLSRYQGFSGEDGGSKNCFGRSGAVLYIRVPVGTLVKEGGRVVADLSCVGDEYIAALGGAGGKGNRFFLANNNRAPVTCTPGQPGQQRVLHLELKTVAHAGMVGFPNAGKSSLLRAISNARPAVASYPFTTLKPHVGIVHYEGHLQIAVADIPGIIRGAHQNRGLGSAFLRHIERCRFLLFVVDLSQPEPWTQVDDLKYELEMYEKGLSARPHAIVANKIDLPEAQANLSQLRDHLGQEVIVLSALTGENLEQLLLHLKVLYDAYAEAELGQGRQPLRW
